Values from PubChem BioAssay AID504793 (Drosophila RNAi Screening Center, 2011).
Assay: 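Genes required for cells to halt at G2/M after double-strand DNA breaks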 (primary screen). Cells: Drosophila S2R+ cells. Knock-down reagent: long dsRNA against Drosophila genes, about 0.25 µg dsRNA per well. Duration: 4 days of dsRNA, then 4 hours of drug before read-out. Treatment: doxorubicin 0.5 µM for 4 hours to cause double-strand breaks, in cells also given a low, harmless dose of dsRNA against nbs to sensitise the assay. Measurement: 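Per-well count of mitotic cells stained for phospho-histone H3 after doxorubicin exposure, used as mitotic index; counts are raw and not normalised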. Direction: mitotic cells: higher = more cells in mitosis, weaker G2 arrest. Rule for the call: 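Genes are called active only when high mitotic counts were reproduced with independent dsRNAs and mitosis was checked for delay without damage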. Calls: active = confirmed in follow-up tests; inactive = not confirmed.
The screen tested about 23,000 reagents; shown is a random part of those that have a named target and a result. Of all reagents, 62 (0.27%) were called active. 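Calls come from follow-up tests whose scores are not deposited, so confirmed genes may have low counts here; counts are not normalised per plate.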 Raw values vary from plate to plate and are shown uncorrected. Reagents against one gene are numbered here. A plus sign joins genes that one reagent is predicted to hit. Reagent sequences are not shown.

The first 7 entries, ahead of the listing:
no.	Gene	reagent	mitotic cells, replicate 1	mitotic cells, replicate 2	call
1	Cyp309a1 (Cytochrome P450 309a1)	1	6		inactive
2	CG14931	1	2		inactive
3	bsd (back seat driver)	1	8		inactive
4	hb (hunchback)	1	8		inactive
5	hb (hunchback)	2	7		inactive
6	Nrt (Neurotactin)	1	1		inactive
7	BicC (Bicaudal C)	1	4		inactive

Main list, from the start:
no.	Gene	reagent	mitotic cells, replicate 1	mitotic cells, replicate 2	call
1	Cyp309a1 (Cytochrome P450 309a1)	1	6		inactive
2	CG14931	1	2		inactive
3	bsd (back seat driver)	1	8		inactive
4	hb (hunchback)	1	8		inactive
5	hb (hunchback)	2	7		inactive
6	Nrt (Neurotactin)	1	1		inactive
7	BicC (Bicaudal C)	1	4		inactive
8	BicC (Bicaudal C)	2	5		inactive
9	ClpX (Caseinolytic protease chaperone subunit)	1	7		inactive
10	ND-MNLL (NADH dehydrogenase (ubiquinone) MNLL subunit)	1	12		inactive
11	CG13926	1	7		inactive
12	CG4839	1	7		inactive
13	CG4839	2	6		inactive
14	dare (defective in the avoidance of repellents)	1	5		inactive
15	Asciz (ASCIZ zinc finger protein)	1			inactive
16	ssp5 (short spindle 5)	1	11		inactive
17	CG6426	1	5		inactive
18	CG11134	1	11		inactive
19	CHKov2 (CHK domain ov2)	1	5		inactive
20	CHKov2 (CHK domain ov2)	2			inactive
21	CG6420	1	15		inactive
22	Cpr78Cc (Cuticular protein 78Cc)	1	4		inactive
23	Rich (RIC1 homolog)	1	4		inactive
24	Rich (RIC1 homolog)	2	7		inactive
25	CG8483	1	3		inactive
26	CG3699	1	8		inactive
27	CG3699	2	15		inactive
28	Or59b (Odorant receptor 59b)	1	6		inactive
29	CG42249	1	15		inactive
30	CG42249	2	22		inactive
31	CG42249	3	8		inactive
32	Naxe (NAD(P)HX epimerase)	1	14		inactive
33	kst (karst)	1	9		inactive
34	Gr93a (Gustatory receptor 93a)	1	17		inactive
35	Muc14A (Mucin 14A)	1	1		inactive
36	CG17065	1	10		inactive
37	CG17065	2	8		inactive
38	SCCRO (Squamous cell carcinoma-related oncogene)	1	5		inactive
39	SCCRO (Squamous cell carcinoma-related oncogene)	2	11		inactive
40	CG9853	1	6		inactive
41	CG9853	2	10		inactive
42	CG9853	3	7		inactive
43	Agps (Alkylglycerone phosphate synthase)	1	8		inactive
44	Agps (Alkylglycerone phosphate synthase)	2	10		inactive
45	CG17786	1	20		inactive
46	CG17786	2	6		inactive
47	Ref2 (RNA and export factor binding protein 2)	1	4		inactive
48	CG12917	1	4		inactive
49	Mcm5 (Minichromosome maintenance 5)	1	6		inactive
50	Mcm5 (Minichromosome maintenance 5)	2	4		inactive
51	CG2021	1	5		inactive
52	CG2021	2	3		inactive
53	CG31104	1	15		inactive
54	CG31104	2	7		inactive
55	Remo (Remoulade)	1	10		inactive
56	CG33189	1	15		inactive
57	CG33189	2	4		inactive
58	Stacl + CG8179 (retired record)	1	5		inactive
59	Stacl + CG8179 (retired record)	2	5		inactive
60	wech	1	3		inactive
61	CG3544	1	9		inactive
62	CG6550	1	3		inactive
63	CG34107	1	3		inactive
64	Tsen34 (tRNA splicing endonuclease subunit 34)	1	8		inactive
65	PolA1 (DNA polymerase alpha subunit 1)	1	2		inactive
66	PolA1 (DNA polymerase alpha subunit 1)	2	5		inactive
67	CR14033 (pseudo)	1	3		inactive
68	CR14033 (pseudo)	2	5		inactive
69	Nup153 (Nucleoporin 153kD)	1	5	9	inactive
70	Sgp (Sgroppino)	1	5		inactive
71	CG6191	1	8		inactive
72	SmydA-8 (SET and MYND domain containing, arthropod-specific, member 8)	1	9		inactive
73	SmydA-8 (SET and MYND domain containing, arthropod-specific, member 8)	2	7		inactive
74	CG31975 + ovm	1	4		inactive
75	CG5386	1	8		inactive
76	Membrin	1	7		inactive
77	CG11951	1	13		inactive
78	CG11951	2	8		inactive
79	Pym (Partner of Y14 and Mago)	1	12		inactive
80	mthl8 (methuselah-like 8)	1	3		inactive
81	mthl8 (methuselah-like 8)	2	8		inactive
82	Polr2H (RNA polymerase II, I and III subunit H)	1	20		active
83	Nepl13 (Neprilysin-like 13)	1	14		inactive
84	hoip (hoi-polloi)	1	1		inactive
85	eIF3g1 (eukaryotic translation initiation factor 3 subunit g1)	1	13		inactive
86	eIF3g1 (eukaryotic translation initiation factor 3 subunit g1)	2	4		inactive
87	holn1 (hole-in-one)	1	4		inactive
88	holn1 (hole-in-one)	2	7		inactive
89	CG15517	1	8		inactive
90	Sodh1 (Sorbitol dehydrogenase 1)	1	9		inactive
91	Sodh1 (Sorbitol dehydrogenase 1)	2	6		inactive
92	CG34283	1	13		inactive
93	ATPsynCF6 (ATP synthase, coupling factor 6)	1	11		inactive
94	Ts (Thymidylate synthase)	1	11		inactive
95	Ts (Thymidylate synthase)	2	14		inactive
96	CG14451	1	4		inactive
97	CG14451	2	8		inactive
98	sdk (sidekick)	1	8		inactive
99	TotF (Turandot F)	1	8		inactive
100	CG9993	1	13		inactive
101	Amun	1	10		inactive
102	Amun	2	5		inactive
103	Bsg (Basigin)	1	4		inactive
104	Bsg (Basigin)	2	4		inactive
105	CG4884	1	7		inactive
106	CG4884	2	1		inactive
107	Upf2	1	9		inactive
108	Upf2	2	5		inactive
109	cmet (CENP-meta)	1	4		inactive
110	Vm26Ac (Vitelline membrane 26Aac)	1	4		inactive
111	Vm26Ac (Vitelline membrane 26Aac)	2	2		inactive
